The experiment concerns the target T1, magnesium chelatase subunit H (BchH) from Rhodobacter capsulatus (Rhodobacter capsulatus) (UniProt P26162).
T1 sequence: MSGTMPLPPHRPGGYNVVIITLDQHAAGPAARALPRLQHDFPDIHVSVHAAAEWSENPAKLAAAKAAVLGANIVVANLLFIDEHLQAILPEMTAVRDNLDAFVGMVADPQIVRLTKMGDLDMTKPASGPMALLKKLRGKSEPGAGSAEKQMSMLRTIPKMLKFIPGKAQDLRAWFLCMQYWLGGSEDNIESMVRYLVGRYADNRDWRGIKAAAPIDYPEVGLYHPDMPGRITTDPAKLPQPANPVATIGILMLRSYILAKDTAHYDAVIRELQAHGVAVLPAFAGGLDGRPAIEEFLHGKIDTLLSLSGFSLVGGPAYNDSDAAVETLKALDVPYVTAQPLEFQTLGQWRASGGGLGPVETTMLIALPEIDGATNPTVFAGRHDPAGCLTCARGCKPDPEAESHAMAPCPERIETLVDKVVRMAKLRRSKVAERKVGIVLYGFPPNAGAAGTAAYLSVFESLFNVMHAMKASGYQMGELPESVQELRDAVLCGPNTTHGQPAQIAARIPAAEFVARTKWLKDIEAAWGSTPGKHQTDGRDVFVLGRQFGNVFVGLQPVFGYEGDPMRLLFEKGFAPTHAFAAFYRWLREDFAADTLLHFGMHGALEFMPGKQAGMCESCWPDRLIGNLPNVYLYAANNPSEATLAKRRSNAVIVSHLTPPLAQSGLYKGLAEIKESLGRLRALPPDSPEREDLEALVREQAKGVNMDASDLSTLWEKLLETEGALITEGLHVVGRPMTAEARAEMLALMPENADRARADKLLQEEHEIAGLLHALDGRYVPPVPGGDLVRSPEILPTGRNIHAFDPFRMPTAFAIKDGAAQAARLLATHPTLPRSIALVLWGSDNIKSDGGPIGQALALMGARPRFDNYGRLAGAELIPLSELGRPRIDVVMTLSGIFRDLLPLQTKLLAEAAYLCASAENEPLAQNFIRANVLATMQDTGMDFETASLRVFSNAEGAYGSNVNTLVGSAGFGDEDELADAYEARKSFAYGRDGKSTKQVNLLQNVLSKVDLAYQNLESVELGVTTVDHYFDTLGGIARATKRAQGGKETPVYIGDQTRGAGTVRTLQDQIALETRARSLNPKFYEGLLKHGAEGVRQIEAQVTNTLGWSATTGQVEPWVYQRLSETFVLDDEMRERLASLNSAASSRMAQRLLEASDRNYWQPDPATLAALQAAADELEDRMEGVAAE
The experiment is described as follows: cross-linking; magnesium chelatase from Rhodobacter capsulatus crosslinked; crosslinks detected by the FINDX workflow; details not given (Peterson Wulff et al, in preparation).

These are yes or no findings as the source states them, for the method shown. In cells and extracts the contact can be indirect. Some results given as binding are weak or reduced against the parent protein; the word gives no strength.

B1: magnesium chelatase subunit D (BchD) from Rhodobacter capsulatus (protein, UniProt P26175 1-561)
chain: MDHERLKSALAVLTVDPAAVGGLWLRSRAGPIRLAFTDTLAKLPFPMALRRLPPNVDDGALYGGLDVAETLHSGKPVLKGGLLDRPSVFILPMAERCTAKLGARLAQALDLRQHALIALDEAAEPDEALPHAVADRLGLFVDLSEVRSIDGPGLLPETAQIERARELLPQVQMPAERVSEIVEGCRQLGISSLRAPMLALTAARILTALSGRTRVEAEDVLHAAELTLAHRALPLQEAPPPPPPPPEPPEPNEGENQQDEQDQIDPLDGIPPEIVVEAVRAMLPDNILQTLNMGSRLRAASGGQGAGQEQIGNRRGRPLPSRKGKLEDDAKIDLVATLRSAAPWQGLRRRQAPAGTERVLLVESSDIHIKRRKEMSDRVLIFAVDASGSAAVARLSEAKGAVELLLGRAYAARDHVSLITFRGTAAQVLLQPSRSLTQTKRQLQGLPGGGGTPLASGMEMAMVTAKQARSRGMTPTIALLTDGRGNIALDGTANRELAGEQATKVARAIRASGMPAVIIDTAMRPNPALVDLARTMDAHYIALPRATAHKMADVLGAALEA
With B1, the binding entry is “binds”.

(Values after paper PMC3377668, “Detection of Crosslinks within and between Proteins by LC-MALDI-TOFTOF and the Software FINDX to Reduce the MSMS-Data to Acquire for Validation” (PLoS ONE, 2012).)
